In PubChem BioAssay AID330 (DTP/NCI, 2004):
The list shows only some results of the screen, not a fair sample: it is rich in T/C values a quarter to a half above the control, in often repeated tests (any T/C) and in doses without a T/C. Other doses and runs of a compound stand elsewhere. T/C: endpoint of the treated group in % of that of the vehicle group. Some doses have a count of surviving animals in place of a T/C: the source holds a T/C of zero for them, seemingly a mark for toxic or unscored doses. Some doses without a T/C left all or most animals alive at the check, yet need not have been tolerated: survival well below the control is almost never listed, so the zero probably covers shortened survival too. Counts of survivors are from the toxicity check (mostly the fifth day) where no day follows; animals may have died later. Schedule codes are those of the source, read here as Q, the interval in days (D) or hours (H), X, the number of doses. Some doses were run more than once; the results are listed from low to high. For survival time, the PubChem record calls one and a half times the control and up active, and a quarter to a half above the control has no call in these data; cut-offs in other NCI protocols can differ. Some T/C values carry the count of animals alive at the toxicity check (mostly the fifth day); without a count, all were alive then. Counts like (3×) count equal records among those shown.

Test system: P388 leukemia ip, CD2F1 mice, survival T/C
Experiment: NCI In Vivo Anticancer Drug Screen. Data for tumor model P388 Leukemia (intraperitoneal) in CD2F1 (CDF1) mice
Details: T/C endpoint: median survival time, higher T/C = longer survival
[1] = dose: 1.0 mg/kg/injection, schedule: Q01DX005 (ip), vehicle: saline + alcohol
[2] = dose: 2.0 mg/kg/injection, schedule: Q01DX005 (ip), vehicle: saline + alcohol
[3] = dose: 4.0 mg/kg/injection, schedule: Q01DX005 (ip), vehicle: saline + alcohol

For `COC(=O)[C@@]12OC[C@]34[C@H]([C@@H](O)[C@@H]1O)[C@@]1(C)CC(=O)C(O)=C(C)[C@@H]1C[C@H]3OC(=O)[C@H](OC(=O)/C=C(\C)C(C)C)[C@@H]24`, the T/C (dose: 0.03 mg/kg/injection, schedule: Q01DX009 (ip), vehicle: saline + alcohol) was 127 and 130 % of control, the T/C (dose: 0.03 mg/kg/injection, schedule: Q01DX009 (ip), vehicle: saline with Tween-80) was 133 % of control and the T/C (dose: 0.03 mg/kg/injection, schedule: Q03HX024 (ip), vehicle: saline + alcohol) was 135 % of control. The T/C (dose: 0.06 mg/kg/injection, schedule: Q01DX009 (ip), vehicle: saline + alcohol, evaluated on day 30) was 115, 132, 140 % of control, the T/C (dose: 0.06 mg/kg/injection, schedule: Q01DX009 (ip), vehicle: saline + alcohol, evaluated on day 60) was 140 % of control and the T/C (dose: 0.06 mg/kg/injection, schedule: Q01DX009 (ip), vehicle: saline with Tween-80) was 139 % of control. For the same molecule, the T/C (dose: 0.06 mg/kg/injection, schedule: Q03HX016 (ip), vehicle: saline + alcohol) was 135 % of control, the T/C (dose: 0.12 mg/kg/injection, schedule: Q01DX009 (ip), vehicle: saline + alcohol) was 130 and 145 % of control and the T/C (dose: 0.13 mg/kg/injection, schedule: Q01DX009 (ip), vehicle: saline + alcohol, evaluated on day 30) was 119, 134, 151 % of control. The T/C (dose: 0.13 mg/kg/injection, schedule: Q01DX009 (ip), vehicle: saline + alcohol, evaluated on day 60) was 149 % of control, the T/C (dose: 0.13 mg/kg/injection, schedule: Q03HX008 (ip), vehicle: saline + alcohol) was 135 % of control [9 of 10 alive] and the T/C (dose: 0.13 mg/kg/injection, schedule: Q03HX016 (ip), vehicle: saline + alcohol) was 141 % of control [9 of 10 alive]. For the same molecule, the T/C (dose: 0.25 mg/kg/injection, schedule: Q01DX005 (ip), vehicle: saline + alcohol) was 114, 128, 140, 141, 141 [5 of 6 alive], 145, 146 % of control, the T/C (dose: 0.25 mg/kg/injection, schedule: Q01DX009 (ip), vehicle: saline + alcohol, evaluated on day 30) was 134, 138, 140, 146, 151, 152, 153, 156, 160, 161 (2×), 162 % of control and the T/C (dose: 0.25 mg/kg/injection, schedule: Q01DX009 (ip), vehicle: saline + alcohol, evaluated on day 60) was 156 % of control. The survivor count (dose: 0.25 mg/kg/injection, schedule: Q03HX008 (ip), vehicle: saline + alcohol) was 6 of 10, the survivor count (dose: 0.25 mg/kg/injection, schedule: Q03HX016 (ip), vehicle: saline + alcohol) was 6 of 10 and the T/C (dose: 0.25 mg/kg/injection, schedule: Q04DX003 (ip), vehicle: saline + alcohol) was 127 % of control. The T/C (dose: 0.5 mg/kg/injection, schedule: Q01DX005 (ip), vehicle: saline + alcohol) was 126, 137, 140, 141, 146, 151, 153, 154, 155 (2×), 158 % of control, the T/C (dose: 0.5 mg/kg/injection, schedule: Q01DX005 (ip), vehicle: water) was 146 and 148 % of control [4 of 5 alive] and the T/C (dose: 0.5 mg/kg/injection, schedule: Q01DX009 (ip), vehicle: saline + alcohol, evaluated on day 30) was 134, 142, 154 (2×), 158, 159, 166 (2×), 173, 175, 176, 198 % of control. The T/C (dose: 0.5 mg/kg/injection, schedule: Q01DX009 (ip), vehicle: saline + alcohol, evaluated on day 60) was 160 % of control, the survivor count (dose: 0.5 mg/kg/injection, schedule: Q03HX008 (ip), vehicle: saline + alcohol) was 0 of 10 and the survivor count (dose: 0.5 mg/kg/injection, schedule: Q03HX016 (ip), vehicle: saline + alcohol) was 1 of 10. The survivor count (dose: 0.5 mg/kg/injection, schedule: Q03HX024 (ip), vehicle: saline + alcohol) was 0 of 10, the T/C (dose: 0.5 mg/kg/injection, schedule: Q04DX003 (ip), vehicle: saline + alcohol) was 127 % of control and the T/C (dose: 0.75 mg/kg/injection, schedule: Q01DX009 (ip), vehicle: saline + Tween-80 + alcohol) was 146 % of control. The T/C [1] was 130, 141, 147, 148, 155, 157, 160, 163, 165, 170 % of control, the survivor count [1] was 3 of 6 and the T/C (dose: 1.0 mg/kg/injection, schedule: Q01DX005 (ip), vehicle: water) was 147 % of control [4 of 6 alive]. The T/C (dose: 1.0 mg/kg/injection, schedule: Q01DX009 (ip), vehicle: saline + alcohol, evaluated on day 30) was 116, 139, 142, 144, 145, 146, 151, 176, 180, 187, 193 % of control, the T/C (dose: 1.0 mg/kg/injection, schedule: Q01DX009 (ip), vehicle: saline + alcohol, evaluated on day 60) was 164 % of control and the survivor count (dose: 1.0 mg/kg/injection, schedule: Q01DX009 (ip), vehicle: saline + alcohol) was 5 of 6. The T/C (dose: 1.0 mg/kg/injection, schedule: Q01DX009 (sc), vehicle: saline + alcohol) was 126 % of control, the survivor count (dose: 1.0 mg/kg/injection, schedule: Q03HX008 (ip), vehicle: saline + alcohol) was 0 of 10 and the survivor count (dose: 1.0 mg/kg/injection, schedule: Q03HX016 (ip), vehicle: saline + alcohol) was 0 of 10. For the same molecule, the T/C (dose: 1.0 mg/kg/injection, schedule: Q04DX003 (ip), vehicle: saline + alcohol) was 134 % of control, the survivor count (dose: 1.5 mg/kg/injection, schedule: Q01DX009 (ip), vehicle: saline + Tween-80 + alcohol) was 4 of 6 and the T/C [2] was 91, 150, 154, 154 [4 of 6 alive], 166 [5 of 6 alive], 167, 173 % of control. For the same molecule, the survivor count [2] was 1 of 6, 2 of 6, 2 of 5, 3 of 5, the survivor count (dose: 2.0 mg/kg/injection, schedule: Q01DX005 (ip), vehicle: water) was 0 of 5 and 2 of 6 and the survivor count (dose: 2.0 mg/kg/injection, schedule: Q01DX009 (ip), vehicle: distilled water + Tween-80) was 2 of 6. The T/C (dose: 2.0 mg/kg/injection, schedule: Q01DX009 (ip), vehicle: saline + alcohol, evaluated on day 30) was 161, 162, 163, 166, 169 % of control, the T/C (dose: 2.0 mg/kg/injection, schedule: Q01DX009 (ip), vehicle: saline + alcohol, evaluated on day 60) was 153 % of control [7 of 10 alive] and the survivor count (dose: 2.0 mg/kg/injection, schedule: Q01DX009 (ip), vehicle: saline + alcohol) was 0 of 6, 1 of 5, 2 of 6, 3 of 6, 4 of 6, 6 of 6. For the same molecule, the survivor count (dose: 2.0 mg/kg/injection, schedule: Q01DX009 (sc), vehicle: saline + alcohol) was 5 of 10, the survivor count (dose: 2.0 mg/kg/injection, schedule: Q03HX008 (ip), vehicle: saline + alcohol) was 0 of 10 and the survivor count (dose: 2.0 mg/kg/injection, schedule: Q03HX016 (ip), vehicle: saline + alcohol) was 0 of 10. The T/C (dose: 2.0 mg/kg/injection, schedule: Q04DX003 (ip), vehicle: saline + alcohol) was 138 % of control, the survivor count (dose: 3.0 mg/kg/injection, schedule: Q01DX009 (ip), vehicle: saline + Tween-80 + alcohol) was 0 of 6 and the survivor count (dose: 4.0 mg/kg/injection, schedule: Q01DX001 (sc), vehicle: saline + alcohol) was 3 of 10. For the same molecule, the T/C [3] was 140 % of control [4 of 5 alive], the survivor count [3] was 0 of 5, 0 of 6, 2 of 6, 3 of 5 and the survivor count (dose: 4.0 mg/kg/injection, schedule: Q01DX005 (ip), vehicle: water) was 0 of 5 and 0 of 6. The survivor count (dose: 4.0 mg/kg/injection, schedule: Q01DX009 (ip), vehicle: distilled water + Tween-80) was 0 of 6, the survivor count (dose: 4.0 mg/kg/injection, schedule: Q01DX009 (ip), vehicle: saline + alcohol) was 0 of 5, 0 of 6, 1 of 10, 1 of 6 and the survivor count (dose: 4.0 mg/kg/injection, schedule: Q01DX009 (ip), vehicle: saline with Tween-80) was 2 of 10. For the same molecule, the survivor count (dose: 4.0 mg/kg/injection, schedule: Q01DX009 (oral), vehicle: saline + alcohol) was 3 of 10, the T/C (dose: 4.0 mg/kg/injection, schedule: Q04DX003 (ip), vehicle: saline + alcohol) was 135 % of control [7 of 10 alive] and the T/C (dose: 4.0 mg/kg/injection, schedule: Q08DX002 (ip), vehicle: saline + alcohol) was 126 % of control [8 of 10 alive]. The survivor count (dose: 8.0 mg/kg/injection, schedule: Q01DX001 (ip), vehicle: saline + alcohol) was 0 of 10, the survivor count (dose: 8.0 mg/kg/injection, schedule: Q01DX001 (oral), vehicle: saline + alcohol) was 4 of 10 and the survivor count (dose: 8.0 mg/kg/injection, schedule: Q01DX001 (sc), vehicle: saline + alcohol) was 0 of 10. For the same molecule, the survivor count (dose: 8.0 mg/kg/injection, schedule: Q01DX005 (ip), vehicle: saline + alcohol) was 0 of 6, the survivor count (dose: 8.0 mg/kg/injection, schedule: Q01DX009 (oral), vehicle: saline + alcohol) was 0 of 10 and the survivor count (dose: 8.0 mg/kg/injection, schedule: Q08DX002 (ip), vehicle: saline + alcohol) was 0 of 10. The survivor count (dose: 16.0 mg/kg/injection, schedule: Q01DX001 (ip), vehicle: saline + alcohol) was 0 of 10, the survivor count (dose: 16.0 mg/kg/injection, schedule: Q01DX001 (oral), vehicle: saline + alcohol) was 0 of 10 and the survivor count (dose: 16.0 mg/kg/injection, schedule: Q01DX001 (sc), vehicle: saline + alcohol) was 0 of 10. For the same molecule, the survivor count (dose: 16.0 mg/kg/injection, schedule: Q08DX002 (ip), vehicle: saline + alcohol) was 0 of 10, the survivor count (dose: 32.0 mg/kg/injection, schedule: Q01DX001 (oral), vehicle: saline + alcohol) was 0 of 10 and the survivor count (dose: 64.0 mg/kg/injection, schedule: Q01DX001 (oral), vehicle: saline + alcohol) was 0 of 10. For the same molecule, the T/C (dose: 62.5 micrograms/kg/injection, schedule: Q01DX009 (ip), vehicle: saline + alcohol) was 136 % of control, the T/C (dose: 125.0 micrograms/kg/injection, schedule: Q01DX009 (ip), vehicle: saline + alcohol) was 136 % of control and the T/C (dose: 250.0 micrograms/kg/injection, schedule: Q01DX009 (ip), vehicle: saline + alcohol) was 130 % of control. For the same molecule, the T/C (dose: 500.0 micrograms/kg/injection, schedule: Q01DX009 (ip), vehicle: saline + alcohol) was 146 % of control, the survivor count (dose: 2000.0 micrograms/kg/injection, schedule: Q01DX009 (ip), vehicle: saline + alcohol) was 3 of 6 and the survivor count (dose: 4000.0 micrograms/kg/injection, schedule: Q01DX009 (ip), vehicle: saline + alcohol) was 0 of 6.
